Laboratory results: PubChem BioAssay AID504793 (Drosophila RNAi Screening Center, 2011)
In all, the deposit lists about 23,000 reagents; shown is an unselected part of those that have a named target and a result. Over the whole deposit, 62 (0.27%) got an active call. 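Calls come from follow-up tests whose scores are not deposited, so confirmed genes may have low counts here; counts are not normalised per plate.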 The raw values are shown without normalisation. Names joined by + are all predicted targets of the reagent.

Aim: 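Genes required for cells to halt at G2/M after double-strand DNA breaks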 (primary screen)
Cells: Drosophila S2R+ cells
Knock-down reagent: long dsRNA against Drosophila genes, about 0.25 µg dsRNA per well
Duration: 4 days of dsRNA, then 4 hours of drug before read-out
Challenge: doxorubicin 0.5 µM for 4 hours to cause double-strand breaks, in cells also given a low, harmless dose of dsRNA against nbs to sensitise the assay
Measurement: 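Per-well count of mitotic cells stained for phospho-histone H3 after doxorubicin exposure, used as mitotic index; counts are raw and not normalised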
Reading the numbers: mitotic cells: higher = more cells in mitosis, weaker G2 arrest
Hit rule: 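a call needs confirmation in secondary tests, with other dsRNAs and a check of mitotic timing without damage, not just a high primary count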
Calls: active = confirmed in follow-up tests; inactive = not confirmed

Neurl4 [DRSC10638]
- mitotic cells, replicate 1: 2
- Outcome: inactive

CG13409 [DRSC14585]
- mitotic cells, replicate 1: 12
- Outcome: inactive

CG42820 + CG42819 [DRSC02264]
- mitotic cells, replicate 1: 8
- Outcome: inactive

CG42820 + CG42819 [DRSC02265]
- Outcome: inactive

Qsox3 [DRSC16096]
- mitotic cells, replicate 1: 11
- Outcome: inactive

CG12644 (retired record) [DRSC17850]
- mitotic cells, replicate 1: 4
- Outcome: inactive

Pxn [DRSC08685]
- mitotic cells, replicate 1: 16
- Outcome: inactive

Pxn [DRSC27895]
- mitotic cells, replicate 1: 4
- Outcome: inactive

GluRIIB [DRSC03335]
- Outcome: inactive

CG11906 [DRSC06096]
- mitotic cells, replicate 1: 10
- Outcome: inactive

CG18371 [DRSC06733]
- mitotic cells, replicate 1: 11
- Outcome: inactive

CG12607 [DRSC08287]
- mitotic cells, replicate 1: 5
- Outcome: inactive

pira [DRSC19494]
- mitotic cells, replicate 1: 11
- Outcome: inactive

Mettl4 + CG14907 [DRSC26716]
- mitotic cells, replicate 1: 8
- Outcome: inactive

CG32163 [DRSC09442]
- mitotic cells, replicate 1: 4
- Outcome: inactive

CG32163 [DRSC28736]
- mitotic cells, replicate 1: 4
- Outcome: inactive

The list goes on (3 carried over from the part before).
Mettl4 + CG14907 [DRSC26716]
- mitotic cells, replicate 1: 8
- Outcome: inactive

CG32163 [DRSC09442]
- mitotic cells, replicate 1: 4
- Outcome: inactive

CG32163 [DRSC28736]
- mitotic cells, replicate 1: 4
- Outcome: inactive

CG8230 [DRSC05931]
- mitotic cells, replicate 1: 7
- Outcome: inactive

Dys [DRSC13364]
- mitotic cells, replicate 1: 5
- Outcome: inactive

Dys [DRSC15260]
- mitotic cells, replicate 1: 12
- Outcome: inactive

Dys [DRSC16218]
- mitotic cells, replicate 1: 7
- Outcome: inactive

Dys [DRSC16219]
- mitotic cells, replicate 1: 10
- Outcome: inactive

Dys [DRSC16220]
- mitotic cells, replicate 1: 7
- Outcome: inactive

Dys [DRSC16935]
- mitotic cells, replicate 1: 11
- Outcome: inactive

Dys [DRSC25148]
- mitotic cells, replicate 1: 5
- Outcome: inactive

Iml1 [DRSC08249]
- mitotic cells, replicate 1: 7
- Outcome: inactive

Chrac-16 [DRSC20343]
- mitotic cells, replicate 1: 5
- Outcome: inactive

Chrac-16 [DRSC23575]
- mitotic cells, replicate 1: 1
- Outcome: inactive

AgmNAT [DRSC18072]
- mitotic cells, replicate 1: 19
- Outcome: inactive

GlnRS [DRSC14140]
- mitotic cells, replicate 1: 5
- Outcome: inactive

CG30065 [DRSC05420]
- mitotic cells, replicate 1: 2
- Outcome: inactive

fliI [DRSC20578]
- mitotic cells, replicate 1: 9
- Outcome: inactive

CG33144 [DRSC07024]
- mitotic cells, replicate 1: 6
- Outcome: inactive

CG33144 [DRSC25033]
- mitotic cells, replicate 1: 12
- Outcome: inactive

CG15260 [DRSC01977]
- mitotic cells, replicate 1: 4
- Outcome: inactive

Or67a [DRSC11240]
- mitotic cells, replicate 1: 3
- Outcome: inactive

CG15473 [DRSC18056]
- mitotic cells, replicate 1: 10
- Outcome: inactive

CG17985 [DRSC06702]
- mitotic cells, replicate 1: 6
- Outcome: inactive

Obp69a [DRSC11247]
- mitotic cells, replicate 1: 11
- Outcome: inactive

Obp69a [DRSC27681]
- mitotic cells, replicate 1: 4
- Outcome: inactive

CG4218 [DRSC01939]
- mitotic cells, replicate 1: 5
- Outcome: inactive

CG4218 [DRSC27814]
- mitotic cells, replicate 1: 5
- Outcome: inactive

CG13044 [DRSC09925]
- mitotic cells, replicate 1: 2
- Outcome: inactive

CG13044 [DRSC28609]
- mitotic cells, replicate 1: 3
- Outcome: inactive
